According to PMC6199744, “Development of Chemical Proteomics for the Folateome and Analysis of the Kinetoplastid Folateome” (ACS Infectious Diseases, 2018):
This continues a long series; more values of the same kind are listed elsewhere.

Tested on: L. major lysate proteins
Assay: Multitargeted bead mixture chemoproteomics, single concentration competition, proteome-wide
Type: binding
Details: vehicle control = 1

CCCCCCOc1cccc(Cc2cnc(N)nc2N)c1 [compound 2]
fold change (LINJ.11.0960 40S RIBOSOMAL PROTEIN S5): 0.94 | fold change (LINJ.11.1180 40S RIBOSOMAL PROTEIN S15A, PUTATIVE): 1.25 | fold change (LINJ.15.1170 HYPOTHETICAL PROTEIN, CONSERVED): 0.98 | fold change (LINJ.18.0270 GLYCOGEN SYNTHASE KINASE 3): 0.8 | fold change (LINJ.21.1790 40S RIBOSOMAL PROTEIN S11, PUTATIVE): 1.06 | fold change (LINJ.22.0180 HYPOTHETICAL PROTEIN, CONSERVED): 0.79 | fold change (LINJ.25.2170 HY[…], CONSERVED): 1.15 | fold change (LINJ.28.2870 PROTEIN PHOSPHATASE 4 CATALYTIC SUBUNIT, PUTATIVE): 0.73 | fold change (LINJ.29.0020 TRANSCRIPTION FACTOR-LIKE PROTEIN): 0.82 | fold change (LINJ.29.0110 HYPOTHETICAL PROTEIN, CONSERVED): 0.65 | fold change (LINJ.33.0960 40S RIBOSOMAL PROTEIN S3, PUTATIVE): 1.18 | fold change (LINJ.35.1820 HYPOTHETICAL PROTEIN, CONSERVED): 0.84 | fold change (LINJ.35.2240 RNA-BINDING PROTEIN, PUTATIVE): 0.8 | fold change (LINJ.36.1160 RIBOSOMAL PROTEIN L24, PUTATIVE): 1.03 | fold change (LINJ.36.1580 HYPOTHETICAL PROTEIN, CONSERVED,NIMA-RELATED PROTEIN KINASE, PUTATIVE): 0.92 | fold change (LMJF.01.0570 TRIC[…], PUTATIVE): 0.94 | fold change (LMJF.03.0190 U2 SPLICING AUXILIARY FACTOR, PUTATIVE): 1 | fold change (LMJF.03.0540 26S PROTEASE […], PUTATIVE): 1.35 | fold change (LMJF.05.0280 PROTEIN TYROSINE PHOSPHATASE, PUTATIVE): 0.99 | fold change (LMJF.05.1140 VACUOLAR ATPASE SUBUNIT-LIKE PROTEIN): 0.83 | fold change (LMJF.06.0370 GLUTAMINE SYNTHETASE, PUTATIVE): 0.97 | fold change (LMJF.07.1050 CATION-TRANSPORTING ATPASE, PUTATIVE): 0.99 | fold change (LMJF.08.0410 HYPOTHETICAL PROTEIN, CONSERVED): 0.83 | fold change (LMJF.08.1130 PHOSPHORIBOSYLPYROPHOSPHATE SYNTHETASE): 0.94 | fold change (LMJF.10.0310 PROTEIN TRANSPORT PROTEIN SEC23, PUTATIVE): 1.13 | fold change (LMJF.10.0910 SMALL GTP-BINDING PROTEIN RAB11, PUTATIVE): 0.96 | fold change (LMJF.11.0590 3-[…]-COA C[…] SUBUNIT, PUTATIVE): 1 | fold change (LMJF.11.1000 PYRUVATE PHOSPHATE DIKINASE, PUTATIVE): 1.03 | fold change (LMJF.11.1030 HY[…], CONSERVED): 1.08 | fold change (LMJF.13.1230 40S RIBOSOMAL PROTEIN S4, PUTATIVE): 1.08 | fold change (LMJF.14.0670 FATTY ACID ELONGASE, PUTATIVE): 1.02 | fold change (LMJF.14.1320 SERINE HYDROXYMETHYLTRANFERASE (SHMT-S)): 0.97 | fold change (LMJF.15.0040 HYPOTHETICAL PROTEIN, CONSERVED): 0.99 | fold change (LMJF.15.0970 NAD/FAD DEPENDENT DEHYDROGENASE, PUTATIVE): 1.36 | fold change (LMJF.16.0440 FUCOSE KINASE, PUTATIVE): 0.91 | fold change (LMJF.16.0550 OROTIDINE-5-PHOSPHATE DECARBOXYLASE/OROTATE PHOSPHORIBOSYLTRANSFERASE, PUTATIVE): 1.03 | fold change (LMJF.17.1290 T[…], PUTATIVE): 1.05 | fold change (LMJF.18.0700 HYPOTHETICAL PROTEIN, CONSERVED): 0.89 | fold change (LMJF.18.1090 CAMP PHOSPHODIESTERASE A, PUTATIVE): 0.89 | fold change (LMJF.18.1280 HY[…], CONSERVED): 1.16 | fold change (LMJF.18.1510 P-TYPE H -ATPASE, PUTATIVE): 1.16 | fold change (LMJF.19.0200 ADP,ATP CARRIER PROTEIN 1, MIT[…], PUTATIVE): 1.15 | fold change (LMJF.19.1510 HYPOTHETICAL PROTEIN, CONSERVED): 1.28 | fold change (LMJF.20.1180 CALPAIN-LIKE CYSTEINE PEPTIDASE, PUTATIVE): 0.95 | fold change (LMJF.21.0015 HISTONE H4): 1.02 | fold change (LMJF.21.0250 HEXOKINASE, PUTATIVE): 1.03 | fold change (LMJF.21.0820 HY[…], CONSERVED): 0.95 | fold change (LMJF.21.1450 ARGININE N-METHYLTRANSFERASE, TYPE II, PUTATIVE): 0.78 | fold change (LMJF.21.1770 ATP SYNTHASE F1 SUBUNIT GAMMA PROTEIN, PUTATIVE): 1.26 | fold change (LMJF.21.1860 BETA TUBULIN): 1.14 | fold change (LMJF.22.0770 NADH-CYTOCHROME B5 REDUCTASE, PUTATIVE): 1.1 | fold change (LMJF.22.0990 HY[…], CONSERVED): 1.01 | fold change (LMJF.22.1630 CCR4 ASSOCIATED FACTOR, PUTATIVE): 0.78 | fold change (LMJF.23.0080 HYPOTHETICAL PROTEIN, CONSERVED): 0.87 | fold change (LMJF.23.0110 GDP-MANNOSE PYROPHOSPHORYLASE): 0.83 | fold change (LMJF.23.0210 ATP-BINDING CASSETTE PROTEIN SUBFAMILY C, MEMBER 1, PUTATIVE): 0.9 | fold change (LMJF.23.0640 HYPOTHETICAL PROTEIN, CONSERVED): 0.82 | fold change (LMJF.24.0070 HYPOTHETICAL PROTEIN, CONSERVED): 0.97 | fold change (LMJF.27.0130 HYPOTHETICAL PROTEIN, CONSERVED): 1.28 | fold change (LMJF.27.0650 HY[…], CONSERVED): 1.2 | fold change (LMJF.28.2510 ACYL-COA DEHYDROGENASE, PUTATIVE): 0.94 | fold change (LMJF.29.1500 HYPOTHETICAL PROTEIN, CONSERVED): 0.98 | fold change (LMJF.29.2200 GTP-BINDING PROTEIN, PUTATIVE): 0.98
